## Primary screen of a compound library

Sequences of proteins named here, by UniProt entry; tags and fusion partners are left off.
UniProt E9BF75, entry or part of it: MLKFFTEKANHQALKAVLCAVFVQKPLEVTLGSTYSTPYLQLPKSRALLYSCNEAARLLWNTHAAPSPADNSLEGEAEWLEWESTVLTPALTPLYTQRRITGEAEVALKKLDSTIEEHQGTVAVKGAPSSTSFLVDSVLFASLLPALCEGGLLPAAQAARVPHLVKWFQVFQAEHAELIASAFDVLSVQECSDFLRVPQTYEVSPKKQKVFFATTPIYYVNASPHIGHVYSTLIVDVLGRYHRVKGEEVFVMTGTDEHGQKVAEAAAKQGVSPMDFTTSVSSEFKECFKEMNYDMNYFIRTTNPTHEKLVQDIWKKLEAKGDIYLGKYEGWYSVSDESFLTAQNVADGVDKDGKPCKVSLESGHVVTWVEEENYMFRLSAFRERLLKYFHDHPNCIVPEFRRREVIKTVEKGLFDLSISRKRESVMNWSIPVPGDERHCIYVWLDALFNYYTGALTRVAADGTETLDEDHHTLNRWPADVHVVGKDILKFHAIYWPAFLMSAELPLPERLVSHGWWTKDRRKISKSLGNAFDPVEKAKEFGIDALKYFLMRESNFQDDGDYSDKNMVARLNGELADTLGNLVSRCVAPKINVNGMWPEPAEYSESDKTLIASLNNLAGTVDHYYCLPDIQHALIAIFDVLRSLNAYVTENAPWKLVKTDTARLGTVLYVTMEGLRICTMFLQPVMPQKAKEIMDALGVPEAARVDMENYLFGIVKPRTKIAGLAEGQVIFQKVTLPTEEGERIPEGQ

From ChEMBL document CHEMBL3988442, “University of Dundee, Small-Polar-MMV Screening Library” (2021).

LdMetRS: 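Primary screen of methionyl-tRNA synthetase; the read-out is not stated. Target: Methionyl-tRNA synthetase (putative), Leishmania donovani (UniProt E9BF75). The test concentration is not given. The values are filed as inhibition. About 68,000 compounds were tested under these conditions; 0.035% (about 24) showed 50% or more at least once.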
Mtb heat-shock: 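Assay on Mycobacterium tuberculosis, filed only as a heat shock assay from Cornell; the read-out is not stated. The concentration is filed as 10 mM, unlikely as a test dose, so the dose is not known. Direction is inferred from retests: higher values go with stronger inhibition. Size under these conditions: about 69,000 compounds, about 930 of them at 50% or above in at least one test.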

Results are percentages, as filed.
How 0% and 100% were set is not recorded. Most values in the screen are low, and negative values occur.
Compounds were drawn at random from those tested, without regard to their results.
A dash means the value is not listed here; it may have been measured.

Compound,LdMetRS,Mtb heat-shock
[H][C@]12CC[C@]([H])(CN(Cc3cccc(O)c3)C1)N(CCC)C2,-,-28.78
CCN(CC)C(=O)c1ccc(Cl)c(NC(=O)c2cc(C(C)C)on2)c1,14.88,-26.67
Cc1ncsc1-c1nnc(C2CCN(Cc3ccccc3F)CC2)o1,5.882,8.539
CC(C)NC(=O)c1ccc2c(c1)nc1n2CCN(C(C)C)C1,12.86,14.51
Cc1ccc(CN2CCN(C3CSCCSC3)CC2CCO)o1 (configuration not stated),8.403,-4.282
CC(C)OCCS(=O)(=O)N1CCN(Cc2ccco2)CC1,17.93,6.969
COC(=O)c1sccc1S(=O)(=O)N1CCC(Oc2cnccn2)CC1,7.343,13.24
CCS(=O)(=O)N1CCN(CC2CC2)c2ncccc2C1,15.85,9.987
COCCO[C@H]1CCN(C(=O)c2cnccn2)[C@H]1Cc1ccncc1,9.89,3.232
CC(=O)N1CCC2(CC1)COC(COCc1ccccn1)C2 (configuration not stated),5.155,-
CC[C@H](C)Nc1nccc(-c2cnc3sccn3c2=O)n1,12.38,-5.129
Cc1nc([C@@H]2C[C@H]3CN(Cc4scnc4C)C[C@H]3O2)no1,13.4,-
O=C(NCc1ccc2c(c1)OCO2)c1ccc(N2CCCCCC2)nc1,19.83,8.178
COCC1CN(Cc2ccncc2)Cc2nn(C)cc21 (configuration not stated),-10.67,-39.79
CCc1noc(CS(=O)(=O)Cc2nc(Cc3ccccc3)no2)n1,5.797,-8.996
O=C(O)c1cnc(OCC2CC2)c(Cl)c1,14.2,-118.5
OC(c1ccccn1)C1CCN(Cc2cc3n(n2)CCCNC3)CC1 (configuration not stated),12.36,13.29
COc1cc(CN2CCCC2c2cccc(F)c2)cc(OC)c1OC (configuration not stated),15.76,-0.5404
CC(C)n1cnc2ccc(NC(=O)CCCn3cccn3)cc2c1=O,2.439,-15.69
Cn1cnc2c(-c3cccnc3)nc(C3CCN(S(C)(=O)=O)CC3)cc21,11.76,12.55
N#Cc1ccc(OCC(O)CN2CCc3cncnc3C2)cc1 (configuration not stated),19.28,-10.44
CNC(=O)[C@@H](c1ccccc1OC)N1CCC[C@H]1C(=O)N1CC[C@@H](O)C1,10.1,-
Cc1cnn(CC2CCCN2C(=O)c2cccc3c2OCO3)c1 (configuration not stated),11.34,18.11
O=C(NCC1CC1)C1CN(Cc2ccncc2)Cc2ccnn2C1.O=C(O)C(F)(F)F.O=C(O)C(F)(F)F.O=C(O)C(F)(F)F (configuration not stated),-,-17.14
CC1(c2ccccc2)CCCN(Cc2nnc(-c3cccnc3)o2)C1 (configuration not stated),19.57,31.3
CN1CCOC(CNCc2cccc(OCc3ccccn3)c2)C1 (configuration not stated),7.981,-7.475
Cc1cc(C)n(CCN2CCN(C(=O)c3ccccc3Br)CC2)n1,13.67,-26.96
CN1CCCN(c2cnn(Cc3ccncc3)c(=O)c2)CC1,15.46,-12.88
CNC(=O)[C@H]1C[C@H]2OCC[C@H]2N(CC2CCOCC2)C1,3.583,-
CC(C)OCCC(=O)NS(=O)(=O)N1CCOc2ccccc21,13.04,9.777
Cn1ncc2c(N3CCC(CCO)CC3)nc(C(C)(C)C)nc21,15.97,-18.02
CCN1Cc2ccccc2CC2(CCN(CC3CCC3)CC2)C1=O,-1.639,-24.63
Clc1cc(CN2CCCC2Cn2cncn2)c2ncccc2c1 (configuration not stated),14.92,8.037
CN(Cc1nccn1CC(F)(F)F)C(=O)c1cccc(N(C)C)c1,9.934,-7.034
CN1CCc2c(CNC(=O)c3nccn3C)cncc2C1.Cl.Cl.Cl,-,-11.07
CCN1CCN(c2ccccc2NC(=O)NCc2ccon2)CC1,14.85,3.045
Cc1cc(C)nc(NCCC(=O)NCCn2ccnc2C)n1,3.492,-
O=C(O)C(F)(F)F.O=C(O)C(F)(F)F.[H][C@@]12C[C@H](C(=O)N(C)C)CN(Cc3ccc4ccccc4n3)[C@]1([H])CCO2,-,-14.19
CC1CCN(S(=O)(=O)NC2CCCCNC2=O)CC1 (configuration not stated),8.564,-1.186
CN(Cc1cncnc1)Cc1cn2c(n1)CN(C1CCOC1)CC2.O=C(O)C(F)(F)F.O=C(O)C(F)(F)F (configuration not stated),-,6.317

The first 5 entries again:

| Compound | LdMetRS | Mtb heat-shock |
|---|---|---|
| `[H][C@]12CC[C@]([H])(CN(Cc3cccc(O)c3)C1)N(CCC)C2` | - | -28.78 |
| `CCN(CC)C(=O)c1ccc(Cl)c(NC(=O)c2cc(C(C)C)on2)c1` | 14.88 | -26.67 |
| `Cc1ncsc1-c1nnc(C2CCN(Cc3ccccc3F)CC2)o1` | 5.882 | 8.539 |
| `CC(C)NC(=O)c1ccc2c(c1)nc1n2CCN(C(C)C)C1` | 12.86 | 14.51 |
| `Cc1ccc(CN2CCN(C3CSCCSC3)CC2CCO)o1` (configuration not stated) | 8.403 | -4.282 |